Results are given in words; binding and its absence hold for the method and conditions named. Binding seen in cells or lysates may run through a third protein. Some results given as binding are weak or reduced against the parent protein; the word gives no strength.
Legend:
[1] = target: endogenous Cs1 (CSL; C2C12 cells) (UniProt P31266); assay: co-immunoprecipitation
[2] = target: endogenous Cs1 (CSL; C2C12 cells) (UniProt P31266); assay: co-immunoprecipitation from C2C12 cells co-cultured with Jagged1- or LacZ-expressing HEK293 cells
[3] = target: endogenous Cs1 (CSL; C2C12 cells) (UniProt P31266); assay: co-immunoprecipitation from co-cultured C2C12 cells

The chains behind the UniProt entries cited, without tags or fusion partners.
UniProt P31266: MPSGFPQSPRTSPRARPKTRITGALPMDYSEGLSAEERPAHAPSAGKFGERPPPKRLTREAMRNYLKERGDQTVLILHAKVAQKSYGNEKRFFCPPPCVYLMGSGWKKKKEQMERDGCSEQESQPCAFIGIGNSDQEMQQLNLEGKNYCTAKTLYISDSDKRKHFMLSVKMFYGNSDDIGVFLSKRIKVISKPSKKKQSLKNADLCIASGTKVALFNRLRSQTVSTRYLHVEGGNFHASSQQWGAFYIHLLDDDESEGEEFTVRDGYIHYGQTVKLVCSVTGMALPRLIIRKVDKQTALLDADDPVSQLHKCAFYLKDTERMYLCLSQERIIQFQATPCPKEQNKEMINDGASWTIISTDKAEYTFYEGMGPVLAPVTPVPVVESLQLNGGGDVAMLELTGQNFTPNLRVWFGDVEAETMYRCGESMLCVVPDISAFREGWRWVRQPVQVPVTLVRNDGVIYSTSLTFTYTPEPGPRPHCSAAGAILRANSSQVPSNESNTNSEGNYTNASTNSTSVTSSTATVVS
UniProt Q9R1E0: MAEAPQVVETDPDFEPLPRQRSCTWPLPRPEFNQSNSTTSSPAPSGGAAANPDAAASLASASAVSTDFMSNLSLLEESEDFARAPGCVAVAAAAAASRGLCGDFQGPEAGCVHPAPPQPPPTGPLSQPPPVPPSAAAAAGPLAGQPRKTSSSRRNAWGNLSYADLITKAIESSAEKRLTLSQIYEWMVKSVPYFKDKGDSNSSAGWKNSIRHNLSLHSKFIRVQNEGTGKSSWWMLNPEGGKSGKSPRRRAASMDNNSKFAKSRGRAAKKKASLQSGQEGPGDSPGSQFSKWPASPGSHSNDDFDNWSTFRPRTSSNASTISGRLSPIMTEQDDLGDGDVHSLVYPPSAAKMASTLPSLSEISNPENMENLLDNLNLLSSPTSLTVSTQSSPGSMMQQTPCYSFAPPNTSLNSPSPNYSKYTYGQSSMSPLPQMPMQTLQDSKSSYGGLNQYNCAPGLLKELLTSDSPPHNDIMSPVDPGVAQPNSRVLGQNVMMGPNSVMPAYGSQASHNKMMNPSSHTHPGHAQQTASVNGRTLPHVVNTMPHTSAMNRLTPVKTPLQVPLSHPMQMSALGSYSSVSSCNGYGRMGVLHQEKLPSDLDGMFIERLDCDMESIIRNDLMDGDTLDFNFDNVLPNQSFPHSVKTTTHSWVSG

binding [1]: binds
binding [2]: binds
binding [3]: binds
Substance: endogenous Foxo1 (C2C12 cells) (from UniProt Q9R1E0 1-652)
